Measurements published in the supplement of paper PMC10849652.
The list shows a part of the results.

Protein sequences, listed by entry. Tags and fused reporters are not part of them. Lines headed by an entry give the natural chain unless they say otherwise; changes in a name come on top.
UniProt Q9UKM9: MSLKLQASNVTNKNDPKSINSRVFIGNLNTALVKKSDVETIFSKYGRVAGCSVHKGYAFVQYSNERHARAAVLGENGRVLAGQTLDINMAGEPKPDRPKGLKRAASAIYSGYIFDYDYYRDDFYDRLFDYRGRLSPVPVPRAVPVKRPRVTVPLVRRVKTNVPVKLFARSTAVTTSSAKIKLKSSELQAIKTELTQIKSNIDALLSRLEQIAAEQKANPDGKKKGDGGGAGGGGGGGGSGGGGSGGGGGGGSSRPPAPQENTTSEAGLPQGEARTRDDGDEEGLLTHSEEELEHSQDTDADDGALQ
UniProt P62491: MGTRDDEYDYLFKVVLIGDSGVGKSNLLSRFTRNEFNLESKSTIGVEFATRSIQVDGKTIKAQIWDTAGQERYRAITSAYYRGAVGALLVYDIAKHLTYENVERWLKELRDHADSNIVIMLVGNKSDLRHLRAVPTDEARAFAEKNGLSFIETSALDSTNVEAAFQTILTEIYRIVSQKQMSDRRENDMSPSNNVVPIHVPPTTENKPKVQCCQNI
UniProt Q86X10: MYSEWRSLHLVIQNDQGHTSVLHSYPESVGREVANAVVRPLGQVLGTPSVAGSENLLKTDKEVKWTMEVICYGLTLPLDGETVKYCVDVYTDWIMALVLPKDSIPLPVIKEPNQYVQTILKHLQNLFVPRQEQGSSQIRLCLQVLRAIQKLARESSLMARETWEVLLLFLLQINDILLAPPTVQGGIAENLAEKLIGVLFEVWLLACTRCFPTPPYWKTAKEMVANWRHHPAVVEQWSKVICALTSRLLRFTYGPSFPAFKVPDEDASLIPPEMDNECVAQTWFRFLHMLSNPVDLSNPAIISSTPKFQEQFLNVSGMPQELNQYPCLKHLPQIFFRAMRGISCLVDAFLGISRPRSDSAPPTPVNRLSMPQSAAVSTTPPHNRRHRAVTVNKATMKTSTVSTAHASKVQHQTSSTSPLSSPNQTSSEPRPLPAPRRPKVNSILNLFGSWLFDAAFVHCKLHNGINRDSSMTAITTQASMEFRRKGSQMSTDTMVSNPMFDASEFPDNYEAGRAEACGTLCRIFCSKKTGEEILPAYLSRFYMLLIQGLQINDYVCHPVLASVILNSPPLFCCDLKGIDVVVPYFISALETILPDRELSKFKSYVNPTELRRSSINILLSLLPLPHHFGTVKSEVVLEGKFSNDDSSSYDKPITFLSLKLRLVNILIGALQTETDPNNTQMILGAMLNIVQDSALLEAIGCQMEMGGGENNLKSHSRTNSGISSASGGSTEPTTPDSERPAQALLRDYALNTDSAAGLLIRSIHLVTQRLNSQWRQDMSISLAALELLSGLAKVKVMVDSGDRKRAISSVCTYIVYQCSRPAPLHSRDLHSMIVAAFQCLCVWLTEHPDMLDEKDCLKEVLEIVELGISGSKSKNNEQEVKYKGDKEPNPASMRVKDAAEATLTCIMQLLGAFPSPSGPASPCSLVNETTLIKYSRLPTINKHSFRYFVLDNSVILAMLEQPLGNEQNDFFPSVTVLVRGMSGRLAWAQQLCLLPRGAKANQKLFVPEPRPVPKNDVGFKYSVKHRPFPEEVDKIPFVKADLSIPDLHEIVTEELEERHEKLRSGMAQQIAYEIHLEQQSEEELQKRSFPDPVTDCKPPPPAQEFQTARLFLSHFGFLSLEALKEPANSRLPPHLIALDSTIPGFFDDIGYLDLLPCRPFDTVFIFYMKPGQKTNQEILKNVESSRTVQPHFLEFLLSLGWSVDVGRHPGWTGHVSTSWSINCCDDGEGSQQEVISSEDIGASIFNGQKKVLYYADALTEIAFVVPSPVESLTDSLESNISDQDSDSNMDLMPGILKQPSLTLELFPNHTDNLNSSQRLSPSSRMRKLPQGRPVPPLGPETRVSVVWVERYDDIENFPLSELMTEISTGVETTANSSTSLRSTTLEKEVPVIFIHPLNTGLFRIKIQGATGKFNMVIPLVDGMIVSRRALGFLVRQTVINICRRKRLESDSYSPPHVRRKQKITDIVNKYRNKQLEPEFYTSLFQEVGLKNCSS
UniProt Q6GYQ0: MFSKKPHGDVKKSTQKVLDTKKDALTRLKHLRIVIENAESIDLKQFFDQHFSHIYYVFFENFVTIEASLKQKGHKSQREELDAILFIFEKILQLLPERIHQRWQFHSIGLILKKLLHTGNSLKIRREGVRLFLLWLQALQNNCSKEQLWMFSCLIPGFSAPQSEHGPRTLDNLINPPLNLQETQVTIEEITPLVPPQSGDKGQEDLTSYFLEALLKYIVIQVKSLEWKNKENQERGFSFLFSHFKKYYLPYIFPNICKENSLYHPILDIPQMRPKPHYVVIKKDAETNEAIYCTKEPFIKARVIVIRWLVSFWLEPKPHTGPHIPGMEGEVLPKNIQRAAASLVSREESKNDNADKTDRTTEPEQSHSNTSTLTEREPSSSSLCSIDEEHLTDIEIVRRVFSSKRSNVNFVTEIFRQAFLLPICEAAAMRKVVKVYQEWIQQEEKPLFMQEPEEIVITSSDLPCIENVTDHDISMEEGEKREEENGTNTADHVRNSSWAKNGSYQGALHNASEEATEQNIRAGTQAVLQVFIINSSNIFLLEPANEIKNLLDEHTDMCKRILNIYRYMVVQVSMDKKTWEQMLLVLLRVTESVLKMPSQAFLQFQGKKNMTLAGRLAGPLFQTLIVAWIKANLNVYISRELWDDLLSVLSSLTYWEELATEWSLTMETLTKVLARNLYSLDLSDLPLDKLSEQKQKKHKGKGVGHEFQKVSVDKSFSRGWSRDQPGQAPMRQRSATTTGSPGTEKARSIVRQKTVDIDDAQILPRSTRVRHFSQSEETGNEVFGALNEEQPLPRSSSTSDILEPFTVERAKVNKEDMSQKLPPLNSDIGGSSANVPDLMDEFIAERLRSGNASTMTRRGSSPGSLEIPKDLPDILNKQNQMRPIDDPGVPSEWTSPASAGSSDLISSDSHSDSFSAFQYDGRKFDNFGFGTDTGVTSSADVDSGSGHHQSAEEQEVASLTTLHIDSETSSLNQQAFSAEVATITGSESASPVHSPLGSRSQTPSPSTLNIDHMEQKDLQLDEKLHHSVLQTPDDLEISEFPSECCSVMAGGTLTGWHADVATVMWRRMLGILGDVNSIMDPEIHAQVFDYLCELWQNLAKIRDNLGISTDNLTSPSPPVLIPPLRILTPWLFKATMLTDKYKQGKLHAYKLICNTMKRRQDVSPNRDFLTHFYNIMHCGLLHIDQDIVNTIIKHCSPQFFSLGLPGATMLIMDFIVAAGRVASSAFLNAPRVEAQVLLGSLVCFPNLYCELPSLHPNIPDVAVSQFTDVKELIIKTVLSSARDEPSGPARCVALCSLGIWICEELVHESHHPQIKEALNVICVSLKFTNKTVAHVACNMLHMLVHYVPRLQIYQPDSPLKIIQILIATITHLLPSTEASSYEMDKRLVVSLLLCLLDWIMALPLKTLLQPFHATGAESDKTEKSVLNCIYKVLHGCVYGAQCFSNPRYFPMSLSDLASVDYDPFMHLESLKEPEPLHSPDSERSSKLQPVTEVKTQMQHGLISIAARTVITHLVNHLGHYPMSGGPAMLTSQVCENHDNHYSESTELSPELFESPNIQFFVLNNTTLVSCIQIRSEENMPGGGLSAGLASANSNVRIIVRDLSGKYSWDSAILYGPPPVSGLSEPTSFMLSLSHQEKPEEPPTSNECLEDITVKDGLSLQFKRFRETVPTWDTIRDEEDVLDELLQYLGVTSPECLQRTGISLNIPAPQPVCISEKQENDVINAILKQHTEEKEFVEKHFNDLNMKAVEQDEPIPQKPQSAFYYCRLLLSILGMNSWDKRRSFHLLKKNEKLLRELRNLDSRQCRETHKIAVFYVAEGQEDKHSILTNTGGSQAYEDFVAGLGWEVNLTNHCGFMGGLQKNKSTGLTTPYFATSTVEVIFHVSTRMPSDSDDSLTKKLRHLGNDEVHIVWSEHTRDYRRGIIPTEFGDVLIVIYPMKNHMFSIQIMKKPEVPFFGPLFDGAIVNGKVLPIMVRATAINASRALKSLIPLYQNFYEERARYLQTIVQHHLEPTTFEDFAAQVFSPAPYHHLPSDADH
UniProt P62834: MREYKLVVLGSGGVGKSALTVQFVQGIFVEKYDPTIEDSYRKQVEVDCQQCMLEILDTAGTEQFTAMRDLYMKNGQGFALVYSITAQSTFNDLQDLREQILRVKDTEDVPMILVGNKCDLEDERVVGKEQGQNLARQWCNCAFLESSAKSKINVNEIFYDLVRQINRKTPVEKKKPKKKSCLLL
UniProt Q8WWW0: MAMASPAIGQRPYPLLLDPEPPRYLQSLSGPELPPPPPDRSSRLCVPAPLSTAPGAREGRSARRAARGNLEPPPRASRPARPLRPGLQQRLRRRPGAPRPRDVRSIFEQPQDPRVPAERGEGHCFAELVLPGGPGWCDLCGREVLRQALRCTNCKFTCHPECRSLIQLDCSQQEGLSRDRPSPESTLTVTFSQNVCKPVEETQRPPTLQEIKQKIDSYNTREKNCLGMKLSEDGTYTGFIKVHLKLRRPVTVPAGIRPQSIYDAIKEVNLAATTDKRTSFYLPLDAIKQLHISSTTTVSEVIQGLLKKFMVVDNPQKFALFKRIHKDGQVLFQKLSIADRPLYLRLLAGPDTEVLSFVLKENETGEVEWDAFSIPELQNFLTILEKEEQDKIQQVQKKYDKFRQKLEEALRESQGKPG
UniProt Q13636: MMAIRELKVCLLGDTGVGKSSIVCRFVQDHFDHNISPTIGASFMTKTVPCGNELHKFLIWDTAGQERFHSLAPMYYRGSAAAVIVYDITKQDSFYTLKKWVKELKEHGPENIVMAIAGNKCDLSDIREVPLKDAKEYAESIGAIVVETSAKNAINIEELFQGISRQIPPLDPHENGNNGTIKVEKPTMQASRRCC
UniProt Q99638: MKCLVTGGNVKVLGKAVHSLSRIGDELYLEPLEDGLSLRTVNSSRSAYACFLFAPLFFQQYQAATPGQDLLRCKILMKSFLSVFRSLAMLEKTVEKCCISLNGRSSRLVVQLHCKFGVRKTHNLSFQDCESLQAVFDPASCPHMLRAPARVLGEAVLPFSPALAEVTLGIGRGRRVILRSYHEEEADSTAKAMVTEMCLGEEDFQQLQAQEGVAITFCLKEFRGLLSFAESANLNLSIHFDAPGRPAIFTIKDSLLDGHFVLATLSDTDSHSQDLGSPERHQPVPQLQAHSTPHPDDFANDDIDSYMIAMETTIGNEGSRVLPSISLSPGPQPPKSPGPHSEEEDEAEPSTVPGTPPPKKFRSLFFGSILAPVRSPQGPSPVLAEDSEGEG
UniProt Q96B01: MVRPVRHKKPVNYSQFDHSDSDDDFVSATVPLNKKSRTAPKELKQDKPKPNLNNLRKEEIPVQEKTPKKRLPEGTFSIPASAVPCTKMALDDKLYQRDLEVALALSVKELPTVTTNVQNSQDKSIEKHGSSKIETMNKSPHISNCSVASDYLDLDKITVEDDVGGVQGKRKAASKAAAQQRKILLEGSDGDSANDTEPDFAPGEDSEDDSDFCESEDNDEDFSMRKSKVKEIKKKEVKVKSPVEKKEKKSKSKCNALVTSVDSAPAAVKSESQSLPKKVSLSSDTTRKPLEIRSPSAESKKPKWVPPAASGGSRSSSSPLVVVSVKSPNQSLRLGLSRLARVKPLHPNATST
UniProt Q6VN20, whole entry, looked up: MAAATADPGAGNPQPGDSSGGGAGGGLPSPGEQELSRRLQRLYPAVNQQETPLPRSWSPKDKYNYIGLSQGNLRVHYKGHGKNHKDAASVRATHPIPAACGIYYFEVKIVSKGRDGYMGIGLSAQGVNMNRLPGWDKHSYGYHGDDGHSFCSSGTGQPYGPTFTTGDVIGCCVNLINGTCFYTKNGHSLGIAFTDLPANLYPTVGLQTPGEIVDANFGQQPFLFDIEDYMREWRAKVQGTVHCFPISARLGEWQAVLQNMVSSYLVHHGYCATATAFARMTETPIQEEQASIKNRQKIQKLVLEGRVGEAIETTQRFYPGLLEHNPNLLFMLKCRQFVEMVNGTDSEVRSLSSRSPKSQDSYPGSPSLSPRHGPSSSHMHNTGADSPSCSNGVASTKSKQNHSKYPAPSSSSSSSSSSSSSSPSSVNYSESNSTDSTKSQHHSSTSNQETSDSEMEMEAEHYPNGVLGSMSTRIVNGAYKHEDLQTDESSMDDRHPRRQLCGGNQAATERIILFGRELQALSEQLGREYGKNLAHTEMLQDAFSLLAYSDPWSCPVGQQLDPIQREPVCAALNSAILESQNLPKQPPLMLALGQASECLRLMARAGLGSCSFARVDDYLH
UniProt Q53S08: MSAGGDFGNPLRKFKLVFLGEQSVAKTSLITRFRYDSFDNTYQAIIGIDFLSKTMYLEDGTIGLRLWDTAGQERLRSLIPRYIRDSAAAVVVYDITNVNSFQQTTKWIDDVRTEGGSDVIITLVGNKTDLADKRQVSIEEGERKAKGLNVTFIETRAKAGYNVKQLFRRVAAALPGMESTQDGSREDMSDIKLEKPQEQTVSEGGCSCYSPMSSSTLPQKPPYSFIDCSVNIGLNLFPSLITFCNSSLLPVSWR

These targets were tested with Cc1ncc(-c2ccnc(Nc3ccc(S(C)(=O)=O)cc3)n2)n1C(C)C (assay: log2 fold change, soluble protein after heating vs DMSO (PISA); higher = thermal stabilisation; K562 cells, 10 uM, 30 min; active = over 0.2 and 3.5 SD of the protein, either way, in both replicates (recomputed)).
Outline: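 Soluble protein was defined as the supernatant after 21,000xg for 90 min. It came from K562 cells at 2×10^6 cells/mL given 10 μM compound for 30 min, heated in aliquots for 3 min across 48°C-58°C, pooled, and extracted in PBS with 0.5% NP-40 at 4°C, and was quantified by TMTpro 16plex LC-MS/MS with equalised channel sums. Thermal stability against control samples, from duplicates, is reported as log2 fold change.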

log2 fold change, active:
RB1 (UniProt P06400) -0.716

log2 fold change, inactive:
RASA1 (UniProt P20936) 0.025, RAB11FIP1 (UniProt Q6WKZ4) -0.172, RAB8B (UniProt Q92930) -0.043, RAP1B (UniProt F5GZG1) -0.217, RBM22 (UniProt Q9NW64) 0.024, RALY (UniProt Q9UKM9) -0.151, RAB11A (UniProt P62491) 0.073, RALGAPB (UniProt Q86X10) 0.024, RALGAPA1 isoform 6 (UniProt Q6GYQ0) 0.441, RANBP2 (UniProt P49792) -0.043, RBM27 (UniProt Q9P2N5) -0.07, RB1CC1 (UniProt Q8TDY2) -0.012, RAD51 (UniProt Q06609) 0.04, RAP1A (UniProt P62834) 0.023, RASSF5 (UniProt Q8WWW0) -0.068, RAPGEF6 isoform 4 (UniProt Q8TEU7) -0.05, RAB31 (UniProt Q13636) 0.012, RAD9A (UniProt Q99638) 0.011, RAD51AP1 (UniProt Q96B01) -0.113, RANBP10 (UniProt Q6VN20) 0.042, RACGAP1 (UniProt Q9H0H5) 0.065, RAB6D (UniProt Q53S08) -0.076
